Source: paper doi:10.1101/2022.02.18.480778
These are yes or no findings as the source states them, for the method shown. In cells and extracts the contact can be indirect. Some entries that bind do so weakly or less than the wild type. For some assays here: Where a sequence is shown, tags or fusion partners need not be part of it.

Key:
[1] = target: T1, 6X HIS-tagged ORF57 (ORF57-6XHIS) (KSHV (HHV-8)) (UniProt Q2HR75); experiment: co-IP
T1 sequence: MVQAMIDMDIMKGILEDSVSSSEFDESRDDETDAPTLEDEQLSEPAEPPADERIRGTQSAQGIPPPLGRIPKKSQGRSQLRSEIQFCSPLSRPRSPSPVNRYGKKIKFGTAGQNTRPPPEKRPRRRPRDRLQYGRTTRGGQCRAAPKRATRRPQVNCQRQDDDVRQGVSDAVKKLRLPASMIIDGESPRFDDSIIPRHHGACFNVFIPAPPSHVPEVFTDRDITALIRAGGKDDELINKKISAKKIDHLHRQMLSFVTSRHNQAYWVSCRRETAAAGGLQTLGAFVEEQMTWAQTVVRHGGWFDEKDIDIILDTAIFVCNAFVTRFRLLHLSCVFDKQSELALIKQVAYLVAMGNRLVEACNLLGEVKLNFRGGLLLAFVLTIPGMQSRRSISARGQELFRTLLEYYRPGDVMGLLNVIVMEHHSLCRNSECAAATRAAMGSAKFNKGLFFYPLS

[2] = target: Shiftless (SHFL, C19ORF66), endogenous in iSLK.WT cells (human (endogenous in iSLK.WT)) (UniProt Q9NUL5); experiment: co-IP

Substance	binding [1]	binding [2]
FLAG-tagged SHFL (FLAG-SHFL) (from UniProt Q9NUL5 1-291)	binds	
cytoplasmic poly(A) binding protein 1 (PABPC1) (from UniProt P11940 1-636)		binds
